Results of single-concentration screens

Measurements from “University of Dundee, Small-Polar-MMV Screening Library” (2021), ChEMBL document CHEMBL3988442.

Mtb glucose medium: 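Whole-cell growth test on Mycobacterium tuberculosis, read after 3 days in glucose-containing 7H9 medium; the read-out is not stated. Tested at 50 µM. Direction is inferred from retests: higher values go with more growth inhibition. Size under these conditions: about 69,000 compounds, about 760 of them at 50% or above in at least one test.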
Mtb cholesterol medium: 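Phenotypic screen: M. tuberculosis growth, cholesterol and DPPC medium, 4 days; the read-out is not stated. Concentration: 50 µM. Direction is inferred from retests: higher values go with more growth inhibition. Size under these conditions: about 69,000 compounds, about 370 of them at 50% or above in at least one test.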

Values are the deposited “Percent Effect”, in %.
The record does not define 0% and 100%; most values in the screen are far below 50% and negative numbers occur (in some assays of this library far below -100).
This is an unselected part of the compounds tested.
Two or more numbers in one place are separate tests of the same structure; such repeats can differ widely.

structure	Mtb glucose medium	Mtb cholesterol medium
Cc1ccc(Cl)cc1N1CCC(CNC(=O)CC(F)(F)F)C1 (stereo not given)	10.36	5.163
CC(=O)Cc1c(C)nn(-c2cncc(C(N)=O)c2)c1C	8.749	-1.807
CC(=O)N(C)Cc1ncn2c1CN(C(=O)C1CCCO1)CCC2 (stereo not given)	3.502	-16.69
COCCN1CCOCC12CCN(C(=O)Cc1cccs1)CC2.O=C(O)C(F)(F)F	20.49 & -9.128	-1.936
COc1ccc2nnc(CCCC(=O)NCc3cccn3C)n2n1	7.855	1.679
CC(=O)c1ccc(S(=O)(=O)NCc2cccnc2N(C)C)cc1	11.32	-4.044
CCOc1cccc(C(=O)N2CCN(c3nccc(OC)n3)CC2)c1	-8.807	-22.29
CC(C)c1nc(NS(=O)(=O)c2ccccc2Cl)no1	0.5403 & -11.59	-9.454
COc1ncc(C2(O)CCN(Cc3cccc(F)c3F)CC2)c(OC)n1.Cl	-16.51	-22.57
COc1ccccc1C(C)CNC(=O)c1c(C)nn(C)c1OC (stereo not given)	5.327	1.643
Cc1ccc(-c2cc(C(=O)NCCCc3csc(N)n3)[nH]n2)o1	26.63	4.201
CC(CN1CCOCC1)n1cncc1-c1cnn(Cc2ccccc2)c1 (stereo not given)	-1.441	-19.47 & -5.977
COCCn1c(CN2CCCCO2)cnc1S(=O)(=O)CC1CCCCC1	-2.517	4.319
CN1CCN(C2CCN(Cc3nnc(C(C)(C)C)o3)CC2)C1=O	-2.536	6.586
Cn1c2c(c(=O)n1C)CN(C(=O)c1cccc(F)c1)CCC2	-14.47	-7.352
Cc1nc(C)n(CC2CCCN2CC(=O)NCCc2ccsc2)n1 (stereo not given)	11.45	12.43
CC(C)(C)c1noc(CCCC(=O)N2CCNC(=O)CC2)n1	-3.306 & -15.41	-26.66
CC(C)c1nc2n(n1)CC(Nc1ncnc3c1CCC3)CC2 (stereo not given)	-23.61	-3.534
CCn1c(C)nnc1CN(C)C1CCN(Cc2nccn2C)C1 (stereo not given)	-48.84	-26.29
COc1ccccc1N1CCN(CC[C@H](O)c2ccccc2)CC1=O	4.661	7.281
Cc1n[nH]c(C)c1-c1c(C#N)c(N)nc2c1CCc1[nH]ccc1-2	-63.77	-26.73 & -94.1
CSc1sc(NC(=O)Cc2c(C)nc(C)[nH]c2=O)nc1C	2.197	9.62
CCCc1cc(=O)[nH]c2nnc(SCC(C)=O)n12	-9.311	-13.3
Cc1ccc(C(=O)N2CC(c3cccnc3)C2)cc1N1CCNC1=O	-8.703	-2.377 & -16.86
CCOC1CCN(C(=O)NCc2ccc(CN3CCOCC3)cc2)CC1	-10.03 & -16.86	-5.821
Cn1cccc1C(=O)N1CCC2(CCCN2c2ncccn2)CC1.O=C(O)C(F)(F)F	10.96	-2.832
Cc1cnn(CC2CCCN2C(=O)c2ccc(F)c(F)c2)c1 (stereo not given)	16.38	-7.111
O=C(C1CCOC1)N1CCN(CC(F)(F)F)c2ccccc21 (stereo not given)	-8.407	6.623
CC(C)NC(=O)N1CCOC2(CCCNC2)C1 (stereo not given)	-10.19	-15.03
Cn1ccc(C(=O)Nc2cccc(-c3ccc4c(c3)CCO4)n2)cc1=O	-2.615	1.944
CC(C)NC(=O)C1CN(C(=O)N2CCCC2)CC12CCOCC2 (stereo not given)	-10.96	-21.66
OC(CN(Cc1ccccc1)Cc1ccccn1)c1cccs1 (stereo not given)	4.451	-2.795
COc1nccnc1-c1cccc(-c2ccn(CC3COCCO3)n2)c1 (stereo not given)	13.85	9.386
[H][C@]12CC[C@]([H])(CN(Cc3ccccc3SC)C1)N(CC1CC1)C2=O	-11.51	-32.94 & -3.463
CN(C)c1ccccc1C(=O)N1C[C@@H](CN2CCC(O)CC2)[C@@H](CO)C1	-13.08	-3.911 & -14.91
Cc1cc(CNC(=O)C2CCN(CC(N)=O)CC2)cc(C)n1	0.1166	1.339
O=C(NCCN1CCOC1=O)c1cnc(-c2cccnc2)nc1	13.82	4.34
Cc1cc(C)n(C2CCN(S(=O)(=O)N3CCC(C)CC3)CC2)n1	37.19	1.198
CCn1ncc2c1C(COCC1CC1)N(C(=O)c1ccncn1)CC2.O=C(O)C(F)(F)F (stereo not given)	-11.86 & -2.803	-2.252
CC(C)c1ccc(N2CCc3onc(-c4ccc(F)c(F)c4)c3C2)nn1	-1.533 & -32.91	0.8096
CCCC(C)C(=O)N1CCC(n2cccc2C(=O)OC)CC1 (stereo not given)	32.96	4.08
N[C@H]1CN(C(=O)c2ccc(Cl)cc2O)C[C@@H]1C1CC1	-34.51 & 11.65	-6.11
CCN(Cc1ccccc1)S(=O)(=O)C1CCS(=O)(=O)CC1	0.5332 & -18.27	-9.618
CN(CC1CCCO1)c1nc(-c2cccnc2)nc2c1CCNCC2 (stereo not given)	-27.5	-5.766
Cc1ccc(NC2(C(=O)NC(C)c3ncn[nH]3)CCCC2)cc1 (stereo not given)	20.8 & 20.97	17.05
CN1C(=O)CC(c2cnn(C)c2)C12CCN(C(=O)c1ccno1)CC2 (stereo not given)	17.68	-6.02
Cc1cc(C)n(CC(C)Nc2nc(C)nc3c2CCNC3)n1 (stereo not given)	16.95	9.632
CN1C(=O)c2cccc(NC(=O)c3ccc4c(c3)OCCO4)c2C1=O	-12.74 & -12.6	-59.61
CCSc1cc(C(=O)NC2CCN(C(=O)c3ccccc3)CC2)ccn1	-6.632	-15.64
Cc1csc2ncc(-c3ccnc(N4CCCC4)n3)c(=O)n12	55.68	18.17
Cc1nccn1CCCn1cncc1-c1ccc2c(c1)CC(C)N2C.Cl (stereo not given)	21.81	11.78 & 20.87
c1nc2c(c(C3CCOC3)n1)CCN(Cc1ccoc1)CC2 (stereo not given)	-13.92 & -6.757	-6.037
CCc1nc(C)c(C(=O)N2CCCC(c3noc(C)n3)C2)s1 (stereo not given)	-18.56 & -4.177	-6.806
Cc1cnn(CC2CN(Cc3nnc(C(C)C)o3)CCO2)c1 (stereo not given)	10.07	-0.2596
O=C(O)C(F)(F)F.O=C(O)C(F)(F)F.[H][C@]12CCC[C@@]1(COc1ccccn1)CN(S(=O)(=O)c1cccnc1)C2	8.545	-25.13
CN(CC(O)C(F)(F)F)C(=O)Nc1cccc(C(F)F)c1 (stereo not given)	-1.838	-3.518
CCCN1CC2(CCN(C)CC2)CC1C(=O)NCc1cc(C)nn1C (stereo not given)	-14.94	-6.337
CN(Cc1ccccc1O)C(=O)NC1CCCN(c2ncccn2)C1 (stereo not given)	-52.37	-33.55
Cc1nc(CNCc2cccnc2Oc2ccc(C)c(F)c2F)c[nH]1	7.231	19.04
O=C(Cc1csc(-c2ccccc2F)n1)NCc1cccc(C(=O)O)c1	-14.33	-11.14
Cc1ccccc1CCC1CCCN(Cc2c(C)[nH]c(=O)[nH]c2=O)C1 (stereo not given)	2.439 & 4.167	-30.57
O=C(O)C(F)(F)F.c1ccc2c(c1)N(CC1CCOC1)CC21CCN(c2cnccn2)CC1 (stereo not given)	7.293	8.321
CCCNC(=O)c1cc(OC)c(OC)cc1N(C)S(C)(=O)=O	1.78 & 13.39	3.055
Cc1cc(-c2cnc(NC3CCCC3)nc2-c2ccoc2)on1	47.15	29.75
COCCN1CCCC12CCN(C(=O)CC1CCCC1)CC2.O=C(O)C(F)(F)F	29.27	28.44
COC(=O)c1cccc(C(=O)N2CCCC(n3cncn3)C2)c1 (stereo not given)	-9.681	-4.529
Cc1cc(C2CCCN(CCCS(=O)(=O)c3ccccc3)C2)n[nH]1 (stereo not given)	-22.2	-21.3
CSc1ccc(CN(CCO)C(=O)CCNC(C)=O)cc1	7.989	-7.731
Cc1cc(N2CCCCC2Cn2nc(C)cc2C)n2ncnc2n1 (stereo not given)	7.307	-14.43
COCCNc1ccc(-c2noc([C@@H]3CCCN3)n2)cn1	-9.014 & -27.06	-29.37
CC(=O)NCCSCCOc1cccc(Br)c1	18.95	-4.209
[H][C@@]12CCC(=O)N(CCc3ccccn3)[C@]1([H])CCN(c1ncc(F)cn1)C2	11.83	3.534
[H][C@@]12CCN(Cc3cccs3)[C@]1([H])CC[C@H](COCC1CC1)O2	-11.74	-18.95 & -31.05
COc1cc(NC(=O)c2cscn2)ncn1	-11.98	-1.47
CCN1CC(C(=O)NCCc2csc(-c3ccncc3)n2)CCC1=O (stereo not given)	-22.55	-13.87
CCCNC(c1ccc(F)cc1)c1cccnc1.Cl.Cl (stereo not given)	-25.16	3.907
CC(C)c1cnc(CN2C(=O)CC3(CCSC3)C2=O)o1 (stereo not given)	33.75 & 18.89	18.86
Cc1cccc(C)c1Oc1ncccc1CNC(=O)C1COC(=O)N1 (stereo not given)	12.63	-9.969
Cc1ccc(CN2CCC3(CC2)C(=O)N(CCO)CCN3C)o1.O=C(O)C(F)(F)F.O=C(O)C(F)(F)F	-19.98	9.673
CC(C(=O)O)n1nc(C(F)(F)F)c(Br)c1C1CC1 (stereo not given)	12.94	-2.198
CCCn1c(NC(=O)CNC(=O)OCC)nc2ccccc21	-23.75	-49.31

The last 7 entries again:

structure,Mtb glucose medium,Mtb cholesterol medium
CCN1CC(C(=O)NCCc2csc(-c3ccncc3)n2)CCC1=O (stereo not given),-22.55,-13.87
CCCNC(c1ccc(F)cc1)c1cccnc1.Cl.Cl (stereo not given),-25.16,3.907
CC(C)c1cnc(CN2C(=O)CC3(CCSC3)C2=O)o1 (stereo not given),33.75 & 18.89,18.86
Cc1cccc(C)c1Oc1ncccc1CNC(=O)C1COC(=O)N1 (stereo not given),12.63,-9.969
Cc1ccc(CN2CCC3(CC2)C(=O)N(CCO)CCN3C)o1.O=C(O)C(F)(F)F.O=C(O)C(F)(F)F,-19.98,9.673
CC(C(=O)O)n1nc(C(F)(F)F)c(Br)c1C1CC1 (stereo not given),12.94,-2.198
CCCn1c(NC(=O)CNC(=O)OCC)nc2ccccc21,-23.75,-49.31